Results are given in words; binding and its absence hold for the method and conditions named. Binding seen in cells or lysates may run through a third protein. Where a sequence is shown, tags or fusion partners need not be part of it.
Biological target: T1, HA-tagged syndecan-4 (HA-SDC4) (human) (UniProt P31431)
T1 sequence: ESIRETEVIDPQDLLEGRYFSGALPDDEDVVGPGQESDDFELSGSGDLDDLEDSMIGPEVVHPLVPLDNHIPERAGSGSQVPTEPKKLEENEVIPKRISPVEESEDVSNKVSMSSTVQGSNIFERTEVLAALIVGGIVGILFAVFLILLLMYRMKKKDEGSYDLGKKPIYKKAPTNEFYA
Assay: co-IP; H9c2 cells transfected with HA-SDC4 and untagged MLP, basal conditions, lysis buffer; IP with anti-HA, blot with anti-MLP

By UniProt entry, the sequences of proteins in these tests, tags left out.
UniProt P50461: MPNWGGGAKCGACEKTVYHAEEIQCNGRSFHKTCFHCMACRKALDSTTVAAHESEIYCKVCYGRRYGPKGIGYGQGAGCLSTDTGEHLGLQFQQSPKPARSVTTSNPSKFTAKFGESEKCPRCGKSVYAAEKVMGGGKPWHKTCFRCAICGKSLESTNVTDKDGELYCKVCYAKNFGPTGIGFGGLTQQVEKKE

binding: no binding
Substance: untagged human MLP expressed in H9c2 cells (from UniProt P50461 1-194)
